For at least one entry, the source does not settle the construct or the ends of the probe. For some assays here: Where a protein sequence is shown, tags need not be part of it.
Key:
Assay in all cases: protein microarray
Conditions in all cases: 10-fold cold unmethylated competitor; 5mC at CpG (SssI, both strands); recombinant protein; protein details: GST (N-terminal); label: Cy5
BCL3 (Homo sapiens) = molecular target: T1, BCL3 (Homo sapiens) (UniProt P20749)
T1 sequence (looked up, limits assumed): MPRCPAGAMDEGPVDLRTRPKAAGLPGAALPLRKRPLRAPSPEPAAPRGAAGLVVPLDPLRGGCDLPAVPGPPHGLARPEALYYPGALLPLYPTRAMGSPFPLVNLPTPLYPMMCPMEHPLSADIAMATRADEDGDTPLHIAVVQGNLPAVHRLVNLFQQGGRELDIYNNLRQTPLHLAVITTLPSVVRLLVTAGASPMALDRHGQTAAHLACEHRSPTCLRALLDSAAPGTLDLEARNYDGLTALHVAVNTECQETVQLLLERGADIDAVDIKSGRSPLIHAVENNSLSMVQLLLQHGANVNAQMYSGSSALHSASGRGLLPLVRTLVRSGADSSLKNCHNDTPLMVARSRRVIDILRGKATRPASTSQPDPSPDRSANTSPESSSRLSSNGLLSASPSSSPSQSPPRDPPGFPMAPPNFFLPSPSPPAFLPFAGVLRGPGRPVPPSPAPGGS

By UniProt entry, the sequences of proteins in these tests, tags left out. Where a name states a change or a piece, a line headed by the entry shows the natural chain unless it says otherwise.
UniProt P23771: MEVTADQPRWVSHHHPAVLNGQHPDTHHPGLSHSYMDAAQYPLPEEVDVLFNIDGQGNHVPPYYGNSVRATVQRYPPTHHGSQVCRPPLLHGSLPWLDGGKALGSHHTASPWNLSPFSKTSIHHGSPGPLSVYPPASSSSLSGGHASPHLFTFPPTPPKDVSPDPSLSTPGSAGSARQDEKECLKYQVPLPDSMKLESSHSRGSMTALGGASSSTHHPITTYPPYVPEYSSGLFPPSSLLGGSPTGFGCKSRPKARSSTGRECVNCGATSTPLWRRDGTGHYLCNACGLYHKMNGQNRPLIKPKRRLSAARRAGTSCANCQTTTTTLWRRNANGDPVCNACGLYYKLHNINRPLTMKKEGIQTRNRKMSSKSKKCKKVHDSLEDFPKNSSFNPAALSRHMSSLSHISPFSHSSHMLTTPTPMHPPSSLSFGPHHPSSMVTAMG
UniProt P37231: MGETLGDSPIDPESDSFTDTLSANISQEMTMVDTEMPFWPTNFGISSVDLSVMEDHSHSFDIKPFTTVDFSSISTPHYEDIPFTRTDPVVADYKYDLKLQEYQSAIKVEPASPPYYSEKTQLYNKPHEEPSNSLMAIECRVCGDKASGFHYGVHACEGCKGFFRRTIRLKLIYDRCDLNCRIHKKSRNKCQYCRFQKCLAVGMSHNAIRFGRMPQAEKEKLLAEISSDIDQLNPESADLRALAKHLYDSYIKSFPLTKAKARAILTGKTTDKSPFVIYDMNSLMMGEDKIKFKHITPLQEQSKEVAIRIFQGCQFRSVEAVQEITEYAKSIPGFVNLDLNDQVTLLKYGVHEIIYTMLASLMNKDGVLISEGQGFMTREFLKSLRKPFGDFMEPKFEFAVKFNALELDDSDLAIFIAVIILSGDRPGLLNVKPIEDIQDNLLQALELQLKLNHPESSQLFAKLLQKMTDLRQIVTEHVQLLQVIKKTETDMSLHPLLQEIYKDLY
UniProt P05549: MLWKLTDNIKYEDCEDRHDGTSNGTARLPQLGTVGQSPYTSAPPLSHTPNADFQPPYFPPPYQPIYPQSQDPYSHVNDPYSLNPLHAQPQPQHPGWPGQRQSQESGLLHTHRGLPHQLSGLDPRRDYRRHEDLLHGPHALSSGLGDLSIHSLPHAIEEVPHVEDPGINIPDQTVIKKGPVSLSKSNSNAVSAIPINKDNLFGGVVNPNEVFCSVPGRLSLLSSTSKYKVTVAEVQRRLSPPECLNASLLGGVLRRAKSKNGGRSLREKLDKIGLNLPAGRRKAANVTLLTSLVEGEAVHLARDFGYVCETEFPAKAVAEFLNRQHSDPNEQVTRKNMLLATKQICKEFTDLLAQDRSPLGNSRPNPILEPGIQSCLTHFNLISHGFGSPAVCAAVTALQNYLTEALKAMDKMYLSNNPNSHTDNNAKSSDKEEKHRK
UniProt Q8IW36: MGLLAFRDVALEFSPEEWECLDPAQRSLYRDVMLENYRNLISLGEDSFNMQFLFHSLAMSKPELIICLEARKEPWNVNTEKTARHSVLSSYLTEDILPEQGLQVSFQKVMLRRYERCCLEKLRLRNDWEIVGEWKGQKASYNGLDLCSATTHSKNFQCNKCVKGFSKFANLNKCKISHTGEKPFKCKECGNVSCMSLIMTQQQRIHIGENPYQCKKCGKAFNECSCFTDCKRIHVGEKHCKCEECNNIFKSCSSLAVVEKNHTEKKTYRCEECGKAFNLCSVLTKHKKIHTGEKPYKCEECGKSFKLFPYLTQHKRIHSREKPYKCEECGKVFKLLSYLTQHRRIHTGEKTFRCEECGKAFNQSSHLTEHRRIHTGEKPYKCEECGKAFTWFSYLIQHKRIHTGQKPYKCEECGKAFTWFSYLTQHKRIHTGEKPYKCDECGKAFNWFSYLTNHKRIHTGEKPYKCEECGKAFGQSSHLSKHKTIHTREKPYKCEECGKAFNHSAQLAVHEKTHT
UniProt Q96EB6: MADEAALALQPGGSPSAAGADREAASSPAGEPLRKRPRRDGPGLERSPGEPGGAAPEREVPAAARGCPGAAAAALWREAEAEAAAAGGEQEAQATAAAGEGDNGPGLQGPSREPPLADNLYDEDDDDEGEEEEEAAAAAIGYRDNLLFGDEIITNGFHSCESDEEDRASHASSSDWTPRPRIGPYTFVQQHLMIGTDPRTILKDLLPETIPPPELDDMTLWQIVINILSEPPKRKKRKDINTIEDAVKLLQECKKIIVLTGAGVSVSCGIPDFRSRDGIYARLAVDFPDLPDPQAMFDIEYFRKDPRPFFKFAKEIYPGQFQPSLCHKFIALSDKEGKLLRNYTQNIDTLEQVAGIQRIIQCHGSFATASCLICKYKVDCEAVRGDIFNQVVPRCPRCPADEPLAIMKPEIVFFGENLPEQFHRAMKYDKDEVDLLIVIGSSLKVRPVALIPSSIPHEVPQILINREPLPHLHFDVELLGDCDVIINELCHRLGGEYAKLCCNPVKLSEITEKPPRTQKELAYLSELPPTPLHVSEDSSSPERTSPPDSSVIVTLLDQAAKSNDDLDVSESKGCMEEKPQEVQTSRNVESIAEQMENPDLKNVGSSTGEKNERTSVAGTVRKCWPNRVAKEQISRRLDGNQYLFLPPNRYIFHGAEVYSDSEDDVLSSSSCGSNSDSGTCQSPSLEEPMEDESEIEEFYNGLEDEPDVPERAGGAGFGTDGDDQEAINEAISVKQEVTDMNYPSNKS
UniProt Q9HBZ2, whole entry: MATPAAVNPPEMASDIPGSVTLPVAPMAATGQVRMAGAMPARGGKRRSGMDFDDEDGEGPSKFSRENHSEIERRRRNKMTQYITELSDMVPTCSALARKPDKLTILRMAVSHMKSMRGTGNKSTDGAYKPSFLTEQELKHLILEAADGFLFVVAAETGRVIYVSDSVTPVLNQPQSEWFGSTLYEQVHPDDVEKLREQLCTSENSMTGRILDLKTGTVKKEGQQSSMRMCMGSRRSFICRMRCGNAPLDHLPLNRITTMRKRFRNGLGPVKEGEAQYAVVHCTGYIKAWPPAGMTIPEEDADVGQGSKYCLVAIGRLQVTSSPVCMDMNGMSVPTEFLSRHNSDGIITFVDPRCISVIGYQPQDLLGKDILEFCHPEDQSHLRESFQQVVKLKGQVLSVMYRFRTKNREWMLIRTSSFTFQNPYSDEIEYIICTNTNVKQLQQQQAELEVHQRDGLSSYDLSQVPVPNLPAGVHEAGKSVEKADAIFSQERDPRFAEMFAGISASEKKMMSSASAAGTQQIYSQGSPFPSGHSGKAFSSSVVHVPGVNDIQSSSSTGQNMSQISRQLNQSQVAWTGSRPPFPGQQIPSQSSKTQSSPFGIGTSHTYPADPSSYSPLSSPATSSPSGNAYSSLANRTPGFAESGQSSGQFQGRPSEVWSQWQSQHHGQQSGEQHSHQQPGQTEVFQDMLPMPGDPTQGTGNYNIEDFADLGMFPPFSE

GATA3 (Homo sapiens) = GATA3 (Homo sapiens) (UniProt P23771)
NRF1 (Homo sapiens) = molecular target: T2, NRF1 (Homo sapiens) (UniProt Q16656)
T2 sequence (looked up, limits assumed): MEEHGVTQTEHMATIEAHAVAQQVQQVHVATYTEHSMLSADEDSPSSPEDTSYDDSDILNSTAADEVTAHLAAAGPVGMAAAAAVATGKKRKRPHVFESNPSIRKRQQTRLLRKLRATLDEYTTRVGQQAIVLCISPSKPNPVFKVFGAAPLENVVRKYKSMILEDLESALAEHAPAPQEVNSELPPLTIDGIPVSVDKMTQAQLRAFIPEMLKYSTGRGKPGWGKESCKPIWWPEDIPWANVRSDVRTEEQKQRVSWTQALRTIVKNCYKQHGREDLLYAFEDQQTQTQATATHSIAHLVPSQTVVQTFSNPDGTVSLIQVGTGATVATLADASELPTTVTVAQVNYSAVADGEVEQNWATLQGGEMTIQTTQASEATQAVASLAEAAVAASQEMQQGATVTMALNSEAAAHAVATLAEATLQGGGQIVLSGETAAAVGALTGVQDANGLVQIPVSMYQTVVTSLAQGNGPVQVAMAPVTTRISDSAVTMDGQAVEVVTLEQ

PPARG (Homo sapiens) = PPARG (Homo sapiens) (UniProt P37231)
TFAP2A (Homo sapiens) = TFAP2A (Homo sapiens) (UniProt P05549)
ZNF695 (Homo sapiens) = ZNF695 (Homo sapiens) (UniProt Q8IW36)
ARID3B (Homo sapiens) = molecular target: T3, ARID3B (Homo sapiens) (UniProt Q8IVW6)
T3 sequence (looked up, limits assumed): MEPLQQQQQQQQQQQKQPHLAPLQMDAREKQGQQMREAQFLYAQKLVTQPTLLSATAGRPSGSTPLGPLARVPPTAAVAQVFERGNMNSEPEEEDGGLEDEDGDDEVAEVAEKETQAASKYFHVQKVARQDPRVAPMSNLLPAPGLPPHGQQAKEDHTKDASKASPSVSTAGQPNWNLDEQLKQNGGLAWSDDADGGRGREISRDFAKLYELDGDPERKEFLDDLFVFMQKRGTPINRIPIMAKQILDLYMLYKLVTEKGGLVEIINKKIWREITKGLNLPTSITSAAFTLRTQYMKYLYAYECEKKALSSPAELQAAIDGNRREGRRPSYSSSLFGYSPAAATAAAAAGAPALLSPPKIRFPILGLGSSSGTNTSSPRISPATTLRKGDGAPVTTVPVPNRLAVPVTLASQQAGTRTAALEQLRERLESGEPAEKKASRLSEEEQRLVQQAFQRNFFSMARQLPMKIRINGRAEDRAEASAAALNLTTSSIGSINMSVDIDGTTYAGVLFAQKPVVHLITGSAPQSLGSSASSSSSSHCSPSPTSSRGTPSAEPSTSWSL

SIRT1 (Homo sapiens) = SIRT1 (Homo sapiens) (UniProt Q96EB6)
SSRP1 (Homo sapiens) = SSRP1 (Homo sapiens) (UniProt Q08945)
CALR (Homo sapiens) = molecular target: T4, CALR (Homo sapiens) (UniProt P27797)
T4 sequence (looked up, limits assumed): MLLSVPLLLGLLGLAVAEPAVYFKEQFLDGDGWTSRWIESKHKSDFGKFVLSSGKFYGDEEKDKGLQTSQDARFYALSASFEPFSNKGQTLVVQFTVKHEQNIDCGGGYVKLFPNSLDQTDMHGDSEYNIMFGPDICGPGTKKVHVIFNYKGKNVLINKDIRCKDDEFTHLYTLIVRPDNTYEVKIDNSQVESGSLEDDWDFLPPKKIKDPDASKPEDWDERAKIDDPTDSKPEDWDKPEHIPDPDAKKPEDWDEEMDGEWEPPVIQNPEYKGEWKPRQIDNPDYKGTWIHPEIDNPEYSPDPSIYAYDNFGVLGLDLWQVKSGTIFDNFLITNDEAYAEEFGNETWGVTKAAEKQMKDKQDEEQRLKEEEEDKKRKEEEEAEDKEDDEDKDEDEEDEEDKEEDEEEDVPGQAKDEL

E2F6 (Homo sapiens) = molecular target: T5, E2F6 (Homo sapiens) (UniProt O75461)
T5 sequence (looked up, limits assumed): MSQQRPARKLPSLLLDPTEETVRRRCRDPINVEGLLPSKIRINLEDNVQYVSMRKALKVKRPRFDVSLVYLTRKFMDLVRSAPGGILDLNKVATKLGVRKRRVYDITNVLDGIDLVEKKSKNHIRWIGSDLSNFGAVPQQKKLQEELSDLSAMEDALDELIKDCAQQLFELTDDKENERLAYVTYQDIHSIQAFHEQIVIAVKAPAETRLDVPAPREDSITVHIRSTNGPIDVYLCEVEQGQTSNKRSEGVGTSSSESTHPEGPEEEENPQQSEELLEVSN

ARNT2 (Homo sapiens) = ARNT2 (Homo sapiens) (UniProt Q9HBZ2)

Measured: binding result

CTGCCGCAAACTGCCGCCCCTATAGTGAGTGCTATTA (double strand) [M95]
binds: BCL3 (Homo sapiens) | GATA3 (Homo sapiens) | NRF1 (Homo sapiens) | PPARG (Homo sapiens)

CGGATGTAAACGGATGTCCCTATAGTGAGTGCTATTA (double strand) [M27]
binds: BCL3 (Homo sapiens) | NRF1 (Homo sapiens) | PPARG (Homo sapiens) | TFAP2A (Homo sapiens) | ZNF695 (Homo sapiens)

CATCCGGGAAACATCCGGGCCCTATAGTGAGTGCTATTA (double strand) [M322]
binds: BCL3 (Homo sapiens) | NRF1 (Homo sapiens) | PPARG (Homo sapiens) | TFAP2A (Homo sapiens) | ZNF695 (Homo sapiens)

AGGCCGCTTTAGGCCGCCCCTATAGTGAGTGCTATTA (double strand) [M304]
binds: ARID3B (Homo sapiens) | BCL3 (Homo sapiens) | GATA3 (Homo sapiens) | PPARG (Homo sapiens) | SIRT1 (Homo sapiens) | SSRP1 (Homo sapiens) | ZNF695 (Homo sapiens)

CCGGAGCAAACCGGAGCCCCTATAGTGAGTGCTATTA (double strand) [M301]
binds: BCL3 (Homo sapiens) | NRF1 (Homo sapiens) | PPARG (Homo sapiens) | TFAP2A (Homo sapiens) | ZNF695 (Homo sapiens)

ACGTGGGTTTACGTGGGCCCTATAGTGAGTGCTATTA (double strand) [M327]
binds: BCL3 (Homo sapiens) | GATA3 (Homo sapiens) | NRF1 (Homo sapiens) | PPARG (Homo sapiens) | TFAP2A (Homo sapiens) | ZNF695 (Homo sapiens)

GTCACGCCCAAAGTCACGCCCCCCTATAGTGAGTGCTATTA (double strand) [M213]
binds: CALR (Homo sapiens) | E2F6 (Homo sapiens) | NRF1 (Homo sapiens) | TFAP2A (Homo sapiens) | ZNF695 (Homo sapiens)

TGTTCCGATTTTGTTCCGACCCTATAGTGAGTGCTATTA (double strand) [M447]
binds: BCL3 (Homo sapiens) | NRF1 (Homo sapiens) | PPARG (Homo sapiens)

CCGGAACTTTCCGGAACCCCTATAGTGAGTGCTATTA (double strand) [M318]
binds: ARID3B (Homo sapiens) | BCL3 (Homo sapiens) | GATA3 (Homo sapiens) | NRF1 (Homo sapiens) | PPARG (Homo sapiens) | ZNF695 (Homo sapiens)

ACGTCAGAAAACGTCAGCCCTATAGTGAGTGCTATTA (double strand) [M303]
binds: ARID3B (Homo sapiens) | BCL3 (Homo sapiens) | PPARG (Homo sapiens) | TFAP2A (Homo sapiens) | ZNF695 (Homo sapiens)

CGCTTCCAAACGCTTCCCCCTATAGTGAGTGCTATTA (double strand) [M319]
not listed: SIRT1 (Homo sapiens) | CALR (Homo sapiens) | E2F6 (Homo sapiens)
binds: all other assays above

CGCTGCCAAACGCTGCCCCCTATAGTGAGTGCTATTA (double strand) [M305]
binds: BCL3 (Homo sapiens) | NRF1 (Homo sapiens) | PPARG (Homo sapiens) | SSRP1 (Homo sapiens) | ZNF695 (Homo sapiens)

Source: publication PMC3762332
